Measurements taken from PMC5748679.
Construct, isoform or probe ends are uncertain for at least one entry. Negatives hold for the conditions tested. Protein sequences can lack the tags named with them.

System: T1, NsrRTh
T1 sequence (looked up, limits assumed): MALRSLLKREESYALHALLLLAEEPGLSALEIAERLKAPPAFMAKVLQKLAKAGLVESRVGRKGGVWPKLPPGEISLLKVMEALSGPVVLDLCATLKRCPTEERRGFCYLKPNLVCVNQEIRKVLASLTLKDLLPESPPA
Experiment: EMSA
Details: 20 mM HEPES pH 6.9, 50 mM NaCl, 0.1 mg/mL BSA, 5 mM beta-mercaptoethanol, 0.5 ug poly(dI-dC), 25-50 nM DNA, 10 min at 60 C, 6% PAGE at room temperature, recombinant protein, protein details: C-terminal His (pET22b)

[1] = 500 nM protein, 50 nM DNA, label: DY782 5' on reverse strand, probe letters rebuilt from the primers and the genome

| Sequence | binding result (500 nM protein, 50 nM DNA) | binding result [1] | binding result (with NsrS (no effect on binding), label: DY782 5' on reverse strand, probe letters rebuilt from the primers and the genome) | binding result (with NsrS and NsrT (no effect on binding), label: DY782 5' on reverse strand, probe letters rebuilt from the primers and the genome) | binding result (with NsrT (no effect on binding), label: DY782 5' on reverse strand, probe letters rebuilt from the primers and the genome) |
| --- | --- | --- | --- | --- | --- |
| AAAAAGGGAAGGAAGGGTCGGAGTTTATGAGCCGGAGGTGAAAGGAGGGTAAG (double strand) [PnorC -56] | no binding | – | – | – | – |
| AAAACATATGGTTATCCTCCAAGCGGGTGGGGGCGCGTTTCCATGACCGGGGTCAAGGGGCCGGGGACGGACCCCGGCCCCCAGGGCCTCAGTAGATGTCGTGGGCGGTGTTGTAGACGTTGAACTTGCCCGTGGGCGTGCGCACCCAGTCCCCGGTGATCCGGGCCTTTTCCTTGAGGGTCAGGGCGTCGTAGACCACGATGAAGGTGGGCGTATCCTTGCTCCCCCAGGCGGAAACCCAGATCTCCGTGCCCCCCTTGTTGAACTCGGGGTGGACCATGCGGGCCTTGAGCTCCCGGGCCCCCGGCACCTCCCAGCACTTGGTGACTTCAAGTCTAGATTTT (double strand) [PnirJ344] | – | binds | – | – | – |
| AAAATCTAGACTTGGGCCACACCCCTCCTTTCCGCCCCACGCGGCTTTCCACAAGGCCCGCCTTGGCGAGCTTCTGGAGCACCTTGGCCATGAAGGCGGGCGGGGCCTTGAGCCTCTCGGCGATCTCCAAGGCGGAAAGGCCGGGCTCCTCGGCCAAGAGGAGAAGGGCGTGAAGGGCGTAGGACTCCTCCCGCTTTAGAAGGCTCCGAAGGGCCATGGCCCCATGCTAACCCCAGGCGTAGAAGGTCCGCGGAGGCCCAAGGGACGTTCGCCCTTGACCTAGGTCATGGAAAAAGGGAGGGAAGGGTCGGAGTTTATGAGCCGGAGGTGAAAGGAGGGTAAGCATATGTTTT (double strand) [PnorC353] | – | binds | binds | binds | binds |
| GGAAGGGTCGGAGTTTATGAGCCGGAGGTGAAAGGAGGGTAAG (double strand) [PnorC -51] | no binding | – | – | – | – |
